These results are taken from patent publication US11472855, “RNA-binding protein” (Panitch Schwarze Belisario & Nadel LLP).

Where a chain is given by its changes, count along the chain named. Weaker means in comparison with the reference protein, sequence or condition of that experiment. For some of these results: Where a protein sequence is shown, tags need not be part of it.

Common to all, as to test: EMSA
Background: A gel shift assay detects complexes by their altered migration in electrophoresis.

The subject of one series is T1, hPUF_MT(1-5-5-5-5-6-7-8).
T1 sequence: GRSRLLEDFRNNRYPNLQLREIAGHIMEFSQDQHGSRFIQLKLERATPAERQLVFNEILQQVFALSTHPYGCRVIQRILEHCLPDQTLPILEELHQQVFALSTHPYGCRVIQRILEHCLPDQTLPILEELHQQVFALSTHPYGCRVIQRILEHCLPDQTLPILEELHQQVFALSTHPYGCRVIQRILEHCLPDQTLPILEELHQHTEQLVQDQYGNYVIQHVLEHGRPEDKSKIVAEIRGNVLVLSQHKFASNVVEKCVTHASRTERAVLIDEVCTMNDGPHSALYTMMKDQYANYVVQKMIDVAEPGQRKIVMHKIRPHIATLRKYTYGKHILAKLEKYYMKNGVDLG
The settings on record: weaker than WT; purified recombinant protein; label: Alexa680 at 5' and 3'; variant of OTS-1511.

Series [1] deals with hPUF_MT(R3→R5, R4→R5_R13F, R5_R13F). The settings on record: H=Y>R>F=W>K; purified recombinant protein; label: Alexa680 at 5' and 3'; variant of OTS-1511.
Series [2] concerns hPUF_MT(R3→R5, R4→R5_R13W, R5_R13W). The settings on record: H=Y>R>F=W>K; Example 5-2 states W strongest; purified recombinant protein; label: Alexa680 at 5' and 3'; variant of OTS-1511.
Series [3] relates to hPUF_MT(R3→R5, R4→R5_R13K, R5_R13K). Conditions: H=Y>R>F=W>K; purified recombinant protein; label: Alexa680 at 5' and 3'; variant of OTS-1511.
Series [4] relates to T2, hPUF_MT(R3→RC2, R4→RC2, R5→RC2).
T2 sequence: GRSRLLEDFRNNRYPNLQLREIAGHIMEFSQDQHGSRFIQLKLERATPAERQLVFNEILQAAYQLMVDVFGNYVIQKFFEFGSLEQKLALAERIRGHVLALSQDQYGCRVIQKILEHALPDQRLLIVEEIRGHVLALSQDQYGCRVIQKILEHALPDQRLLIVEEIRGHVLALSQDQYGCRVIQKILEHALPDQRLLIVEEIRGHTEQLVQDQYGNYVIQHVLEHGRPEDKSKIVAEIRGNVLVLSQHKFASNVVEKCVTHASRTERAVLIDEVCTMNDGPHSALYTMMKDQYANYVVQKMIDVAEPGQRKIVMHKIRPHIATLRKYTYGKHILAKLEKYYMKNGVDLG
Conditions: may be weaker than MT(R3→R5, R4→R5); purified recombinant protein; label: Alexa680 at 5' and 3'; variant of OTS-1511.

Series [5] relates to T3, hPUF_MT(R3→RC, R4→RC, R5→RC).
T3 sequence: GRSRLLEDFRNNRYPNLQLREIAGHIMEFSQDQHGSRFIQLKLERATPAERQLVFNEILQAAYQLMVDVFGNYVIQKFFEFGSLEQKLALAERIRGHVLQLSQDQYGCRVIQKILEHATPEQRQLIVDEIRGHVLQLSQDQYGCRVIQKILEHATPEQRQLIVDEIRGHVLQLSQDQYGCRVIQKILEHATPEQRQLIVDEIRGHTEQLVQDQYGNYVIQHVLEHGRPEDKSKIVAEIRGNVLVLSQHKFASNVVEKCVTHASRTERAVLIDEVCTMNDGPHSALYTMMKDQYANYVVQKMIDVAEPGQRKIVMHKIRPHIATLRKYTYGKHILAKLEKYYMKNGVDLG
Conditions: may be weaker than MT(R3→R5, R4→R5); purified recombinant protein; label: Alexa680 at 5' and 3'; variant of OTS-1511.

Series [6] has as its system hPUF_MT(R2_N12C, R3→R5, R4→R6) R2 repeat N12C. The settings on record: A=U=C>>G, purified recombinant protein, label: Alexa680 at 5' and 3'.
The test system of the next series is T4, hPUF_MT(R3→R5, R4→R6).
T4 sequence: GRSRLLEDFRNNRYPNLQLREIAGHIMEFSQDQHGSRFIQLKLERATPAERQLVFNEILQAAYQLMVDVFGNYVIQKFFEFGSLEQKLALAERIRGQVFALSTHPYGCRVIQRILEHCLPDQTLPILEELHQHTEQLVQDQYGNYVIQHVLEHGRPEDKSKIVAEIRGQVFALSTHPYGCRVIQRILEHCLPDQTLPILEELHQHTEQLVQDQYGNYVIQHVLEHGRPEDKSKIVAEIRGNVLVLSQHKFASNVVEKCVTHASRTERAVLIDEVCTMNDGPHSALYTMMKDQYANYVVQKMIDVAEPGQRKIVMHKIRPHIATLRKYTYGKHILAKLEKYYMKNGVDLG
Conditions: purified recombinant protein, label: Alexa680 at 5' and 3', variant of OTS-1511.

The target in another series is T5, hPUF_MT(R6_Y13W) (UniProt Q14671).
T5 sequence: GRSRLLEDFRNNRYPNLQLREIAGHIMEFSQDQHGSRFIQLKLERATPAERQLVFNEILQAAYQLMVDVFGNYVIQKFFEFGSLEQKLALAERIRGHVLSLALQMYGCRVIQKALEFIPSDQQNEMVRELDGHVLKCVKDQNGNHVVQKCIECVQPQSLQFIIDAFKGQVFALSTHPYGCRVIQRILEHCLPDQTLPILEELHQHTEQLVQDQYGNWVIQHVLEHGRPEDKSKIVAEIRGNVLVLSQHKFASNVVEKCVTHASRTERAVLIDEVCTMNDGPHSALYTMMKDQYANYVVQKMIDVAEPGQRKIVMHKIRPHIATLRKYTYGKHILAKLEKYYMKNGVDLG
Conditions: Tyr optimal for U-A; purified recombinant protein; label: Alexa680 at 5' and 3'.

In series [7] the test system is T6, hPUF_MT(R1_S12N, R3→R5, R4→R6) R1 repeat S12N.
T6 sequence: T4 sequence with S36N
The settings on record: U>C>>G=A, purified recombinant protein, label: Alexa680 at 5' and 3'.

The target of series [8] is T7, hPUF_MT(R6_Y13F) R6 repeat Y13F (UniProt Q14671).
T7 sequence: T5 sequence with W217F
The settings on record: Tyr optimal for U-A; purified recombinant protein; label: Alexa680 at 5' and 3'.

A further series deals with T8, hPUF_MT(1-6-5-6-5-6-7-8).
T8 sequence: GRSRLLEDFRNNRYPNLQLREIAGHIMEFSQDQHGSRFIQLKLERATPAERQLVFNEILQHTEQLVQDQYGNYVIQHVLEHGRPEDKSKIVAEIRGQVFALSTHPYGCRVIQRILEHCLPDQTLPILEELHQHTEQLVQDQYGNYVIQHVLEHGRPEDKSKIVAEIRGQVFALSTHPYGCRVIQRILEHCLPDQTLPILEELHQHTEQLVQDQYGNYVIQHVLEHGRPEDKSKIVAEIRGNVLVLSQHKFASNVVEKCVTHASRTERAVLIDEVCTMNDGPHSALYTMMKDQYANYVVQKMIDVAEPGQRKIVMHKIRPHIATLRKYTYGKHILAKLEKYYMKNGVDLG
The settings on record: printed "Kd: 50 to 10 nM", about one-tenth of WT; 4 C, 100 mM NaCl; purified recombinant protein; label: Alexa680 at 5' and 3'.

In series [9] the test system is T9, hPUF_MT(R1_Q16R, R3→R5, R4→R6) R1 repeat Q16R.
T9 sequence: T4 sequence with Q40R
The settings on record: C>U>>G>A, purified recombinant protein, label: Alexa680 at 5' and 3'.

For the next series, the target named is hPUF_MT(R5_R13K) (UniProt Q14671). Conditions: Arg optimal for A-U; purified recombinant protein; label: Alexa680 at 5' and 3'.
For series [10], the target named is T10, hPUF_MT(R6_Y13H) R6 repeat Y13H (UniProt Q14671).
T10 sequence: T5 sequence with W217H
The settings on record: Tyr optimal for U-A; purified recombinant protein; label: Alexa680 at 5' and 3'.

For series [11], the system named is T11, hPUF_MT(R1_Q16E, R3→R5, R4→R6) R1 repeat Q16E.
T11 sequence: T4 sequence with Q40E
Conditions: G>>U=C; purified recombinant protein; label: Alexa680 at 5' and 3'; variant of OTS-1511.

For the sequence CCAGAAUUGUAAAAAUUCG [OTS-1818], the binding result with hPUF_MT(1-5-5-5-5-6-7-8) was “binds more weakly”.

Regarding CCAGAAUUGUAAAUAUUCG [OTS-1759], the binding result in series [1], in [2], in [3], in [4] and in series [5] was “binds more weakly” throughout.

Take CCAGAAUUGUAUAAAUUCG [OTS-2023]: the binding result in series [6] (weakest of R2 variants, variant of OTS-1511) is “binds more weakly”.

With CCAGAAUUGUAUACAUUCG [OTS-2025], the binding result is recorded as “binds more weakly” in [6] (variant of OTS-1511) and “binds more weakly” with hPUF_MT(R3→R5, R4→R6) (U>>C).

Consider CCAGAAUUGUAUAGAUUCG [OTS-2024], for which the binding result in [6] (variant of OTS-1511) is recorded as “binds more weakly”.

Regarding CCAGAAUUGUAUAUAUUCG [OTS-1511], the binding result (in the series with hPUF_MT(R6_Y13W); in series [7]; in series [8]; in series [6]; in the series on hPUF_MT(1-6-5-6-5-6-7-8); in series [9]) was “binds more weakly” each time. In addition, the binding result (in the series with hPUF_MT(R5_R13K); in series [10]) was “binds more weakly” in each case.

Consider CCAGAAUUGUAUAUCUUCG [OTS-2021], for which the binding result in [7] (variant of OTS-1511) and in series [11] was “binds more weakly” each time.

For CCAGAAUUGUAUAUGUUCG [OTS-2020], the binding result is “binds more weakly” in series [7] (variant of OTS-1511); “binds more weakly” in the series with hPUF_MT(R3→R5, R4→R6) (U=C>A>G at R1 position); “binds more weakly” in series [9] (variant of OTS-1511).

Consider CCAGAAUUGUAUAUUUUCG [OTS-2022], for which the binding result in series [9] (variant of OTS-1511) and in [11] was “binds more weakly” each time.
